Structures can show the parent of a compound that is named as a salt. The list shows a part of the results. The calls rarely recur for the same compound in another form.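 Kinases, fused to nanoluciferase, were expressed in K562 cells; luminescence was measured every 4 h from 2 to 18 h as percent of control (DMSO = 100%, positive control = 0%). A time point is decreased if signal falls significantly (2 sigma). Hits were called by the authors by a rule that is not shown; the count of time points alone does not decide it.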
Molecular target: SPHK1 (UniProt Q9NYA1)
Test: number of time points (of 5) at which kinase-Nluc abundance scored as decreased, DMSO-normalised (count); higher = more persistent destabilization
Settings: K562; 2-18 h

By UniProt entry, the sequences of proteins in these tests, tags left out.
UniProt Q9NYA1, whole entry: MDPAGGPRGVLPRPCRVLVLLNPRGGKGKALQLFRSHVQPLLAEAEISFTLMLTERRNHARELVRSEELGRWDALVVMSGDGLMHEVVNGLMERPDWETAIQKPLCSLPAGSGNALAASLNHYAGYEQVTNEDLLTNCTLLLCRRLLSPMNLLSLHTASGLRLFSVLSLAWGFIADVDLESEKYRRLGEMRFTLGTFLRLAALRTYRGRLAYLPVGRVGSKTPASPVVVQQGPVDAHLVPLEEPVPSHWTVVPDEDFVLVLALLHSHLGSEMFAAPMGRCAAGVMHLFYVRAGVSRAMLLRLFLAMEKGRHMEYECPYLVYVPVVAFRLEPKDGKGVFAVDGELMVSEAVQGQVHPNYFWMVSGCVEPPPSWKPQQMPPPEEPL

Row | Compound | number of time points
1 | O=c1cc(-c2ccc(O[C@@H]3O[C@H](CO)[C@@H](O)[C@H](O)[C@H]3O)cc2)oc2cc(O)c([C@@H]3O[C@H](CO)[C@@H](O)[C@H](O)[C@H]3O[C@@H]3OC[C@H](O)[C@H](O)[C@H]3O)c(O)c12 [Vaccarin] (10 µM) | 0
2 | Nc1ccc(Sc2nc3ccccc3s2)c(Cl)c1 [KRAS inhibitor-9] (10 µM) | 0
3 | COc1ccc2cc1Oc1ccc(cc1)C[C@H]1c3cc(c(OC)cc3CCN1C)Oc1c(O)c(OC)cc3c1[C@H](C2)N(C)CC3 [Fangchinoline] (2.5 µM) | 0
4 | Nc1nccc(Oc2ccc3c(C(=O)Nc4cccc(C(F)(F)F)c4)cccc3c2)n1 (10 µM) | 0
5 | CN1C(=O)N[C@@H](Cc2c[nH]c3c(Cl)cccc23)C1=O [Necrostatin 2 (S enantiomer)] (10 µM) | 0
6 | Cc1ncc(-c2cc(F)c(O)c(F)c2)cc1-c1cc(F)c(O)c(F)c1 (10 µM) | 0
7 | N=C(NC(=N)N1CCCC1)Nc1ccc(OC(F)(F)F)cc1 (10 µM) | 0

Molecular target: SRC (UniProt P12931)
Test: as above
Settings: K562; 2-18 h

Row | Compound | number of time points
8 | COc1ccc(Br)c(C=O)c1O [6-Bromo-2-hydroxy-3-methoxybenzaldehyde] (10 µM) | 0
9 | O=C1C=CC2=C3c4cc(O)c(O)cc4CC3(O)COC2=C1O (stereo unspecified) [Hematein] (10 µM) | 0
10 | Cc1cccc(CC(=O)N2CCc3c2ccc(-c2cn(C)c4ncnc(N)c24)c3F)n1 (10 µM) | 0
11 | COCCOc1cnc2ccn([C@H](C)c3nnc4c(F)cc(-c5cnn(C)c5)cn34)c(=O)c2c1 (10 µM) | 0
12 | Cn1cc(C2=C(c3ccc(Cl)cc3Cl)C(=O)NC2=O)c2ccccc21 (10 µM) | 0
13 | COc1cc(N2CCC(N3CCN(C)CC3)CC2)ccc1Nc1ncnc(Nc2ccccc2S(=O)(=O)C(C)C)n1 (10 µM) | 0
14 | COc1c(Nc2ncc(Cl)c(N[C@H]3[C@@H](C(N)=O)[C@@H]4C=C[C@H]3C4)n2)ccc2c1CC[C@@H](N1CCOCC1)CC2 (10 µM) | 0
15 | Cc1ccc(NC(=O)N2CCN(c3nc(N)nc4sc(-c5cccnc5)nc34)CC2)cc1 [PI4KIII beta inhibitor 3] (10 µM) | 0
16 | CNc1cc2c(Nc3cccc(Br)c3)ncnc2cn1 (10 µM) | 0
17 | CC(C)n1c(CO)nc2c(F)cc(-c3nc(Nc4ccc(CN5CCNCC5)cn4)ncc3F)cc21 (10 µM) | 0
18 | CN1CCC(Nc2ccc(C(=O)Nc3cc(-c4ccc5c(c4)OCO5)[nH]n3)cc2)CC1 (10 µM) | 0
19 | CNC(=O)CN1CCC(Oc2cc3c(Nc4cccc(Cl)c4F)ncnc3cc2OC)CC1 [Sapitinib] (10 µM) | 0
20 | O=C(O)c1c[nH]c2cc(Cl)c(-c3ccc(C4(O)CCC4)cc3)cc12 (10 µM) | 0
21 | COc1cc(N2CCC(O)CC2)ccc1Nc1nc(Nc2ccccc2S(=O)(=O)C(C)C)c2[nH]cnc2n1 (10 µM) | 0
22 | O=c1c(O)c(-c2ccc(O)c(O)c2)oc2cc(O)c(O)c(O)c12 [Quercetagetin] (10 µM) | 0
23 | Cc1ncsc1-c1ccc(CNC(=O)[C@@H]2C[C@@H](O)CN2C(=O)[C@@H](NC(=O)COCCOc2ccc(-c3cc(Nc4ccc(OC(F)(F)F)cc4)ncn3)cc2)C(C)(C)C)cc1 (2.5 µM) | 0
24 | COc1cc(Nc2ccnc3ccc(Br)cc23)cc(OC)c1OC (2.5 µM) | 0
25 | Cc1ccc2c(NS(=O)(=O)c3ccccc3Cl)cccc2c1Oc1ncccc1-c1ccnc(N[C@H]2CCCNC2)n1 (2.5 µM) | 0
26 | CC(C)c1cc2c(c(O)c1O)[C@@]13CCCC(C)(C)[C@@H]1C[C@@H]2OC3=O [Carnosol] (2.5 µM) | 0
27 | Cc1nc2c(NCc3cccc(S(C)(=O)=O)c3)nccn2c1-c1ccc(O)c(F)c1 (10 µM) | 0

Row | Compound | number of time points
28 | CC(C)n1cnc2c(Nc3cccc(Cl)c3)nc(N[C@H]3CCCC[C@@H]3N)nc21 (2.5 µM) | 0
29 | O=c1cc(N2CCOCC2)oc2c(-c3cccc4c3sc3ccccc34)cccc12 (10 µM) | 0
30 | C[C@@H]1COC(Nc2ccc3ncnc(Nc4ccc(OCc5nccs5)c(Cl)c4)c3c2)=N1 [Varlitinib] (10 µM) | 0
31 | Cc1cncc2cccc(S(=O)(=O)N3CCCNC[C@@H]3C)c12 [H-1152 (dihydrochloride)] (10 µM) | 0
32 | CCC[C@H](C)Oc1nc(N)c2[nH]c(=O)n(CCCCCN3CCCCC3)c2n1 (10 µM) | 0
33 | CC(C)(Oc1ccc(Cl)cc1)C(=O)Nc1ccc(OCc2ccc(C#N)cc2)cc1 [AMPK activator 4] (10 µM) | 0
34 | Cc1cc(N2CCOCC2)ccc1Nc1nc(NC2CCCCC2)c2[nH]cnc2n1 (10 µM) | 0
35 | CC(ONC(=O)c1cc(C(F)(F)F)cc(C(F)(F)F)c1)C(=O)Nc1ccc(Cl)cc1 (stereo unspecified) (2.5 µM) | 0
36 | O=S(=O)(c1ccc(O)cc1O)N1Cc2cc(O)cc(O)c2C1 (10 µM) | 0
37 | CN1CCN(c2ccc(-n3cc(-c4ccncc4OCC4CCNCC4)cn3)cc2)CC1 [MELK-8a (hydrochloride)] (10 µM) | 0
38 | CCCCC(=O)OCC(=O)[C@]1(O)Cc2c(O)c3c(c(O)c2[C@@H](O[C@H]2C[C@H](NC(=O)C(F)(F)F)[C@H](O)[C@H](C)O2)C1)C(=O)c1c(OC)cccc1C3=O [Valrubicin] (10 µM) | 0
39 | CC(C)=CCC[C@](C)(O[C@@H]1O[C@H](CO[C@@H]2O[C@H](CO)[C@@H](O)[C@H](O)[C@H]2O)[C@@H](O)[C@H](O)[C@H]1O)[C@H]1CC[C@]2(C)[C@@H]1[C@H](O)C[C@@H]1[C@@]3(C)CC[C@H](O[C@@H]4O[C@H](CO)[C@@H](O)[C@H](O)[C@H]4O[C@@H]4O[C@H](CO)[C@@H](O)[C@H](O)[C@H]4O)C(C)(C)[C@@H]3CC[C@]12C [Ginsenoside Rb1] (10 µM) | 0
40 | O=c1cc(-c2ccc(O[C@@H]3O[C@H](CO)[C@@H](O)[C@H](O)[C@H]3O)cc2)oc2cc(O)c([C@@H]3O[C@H](CO)[C@@H](O)[C@H](O)[C@H]3O[C@@H]3OC[C@H](O)[C@H](O)[C@H]3O)c(O)c12 [Vaccarin] (10 µM) | 0
41 | Nc1ccc(Sc2nc3ccccc3s2)c(Cl)c1 [KRAS inhibitor-9] (10 µM) | 0
42 | COc1ccc2cc1Oc1ccc(cc1)C[C@H]1c3cc(c(OC)cc3CCN1C)Oc1c(O)c(OC)cc3c1[C@H](C2)N(C)CC3 [Fangchinoline] (2.5 µM) | 0
43 | Nc1nccc(Oc2ccc3c(C(=O)Nc4cccc(C(F)(F)F)c4)cccc3c2)n1 (10 µM) | 0
44 | CN1C(=O)N[C@@H](Cc2c[nH]c3c(Cl)cccc23)C1=O [Necrostatin 2 (S enantiomer)] (10 µM) | 0
45 | Cc1ncc(-c2cc(F)c(O)c(F)c2)cc1-c1cc(F)c(O)c(F)c1 (10 µM) | 0
46 | N=C(NC(=N)N1CCCC1)Nc1ccc(OC(F)(F)F)cc1 (10 µM) | 0
